Measured values as given in PubChem BioAssay AID504847 (National Center for Advancing Translational Sciences (NCATS), 2011).
Several values for one entry are separate records, joined by “and”; a condition that tells them apart may be missing. Equal entries are not always repeated. In all, about 400,000 compounds went through this assay and about 3,700 (0.93%) were called active. Inconclusive results, whose numbers are uncertain, are shown with a selection of clear calls. Calls come from the whole dose curve; as a rule, active = well fitted inhibition curve with a large enough effect; inconclusive = small, poorly fitted or top-dose-only effect, or another doubt; inactive = no such curve, though single readings can be large or run the other way. A potency beside an inconclusive call is a rough fit, not a confirmed value.

Sequences of proteins named here, by UniProt entry; tags and fusion partners are left off.
UniProt P11473, whole entry, looked up: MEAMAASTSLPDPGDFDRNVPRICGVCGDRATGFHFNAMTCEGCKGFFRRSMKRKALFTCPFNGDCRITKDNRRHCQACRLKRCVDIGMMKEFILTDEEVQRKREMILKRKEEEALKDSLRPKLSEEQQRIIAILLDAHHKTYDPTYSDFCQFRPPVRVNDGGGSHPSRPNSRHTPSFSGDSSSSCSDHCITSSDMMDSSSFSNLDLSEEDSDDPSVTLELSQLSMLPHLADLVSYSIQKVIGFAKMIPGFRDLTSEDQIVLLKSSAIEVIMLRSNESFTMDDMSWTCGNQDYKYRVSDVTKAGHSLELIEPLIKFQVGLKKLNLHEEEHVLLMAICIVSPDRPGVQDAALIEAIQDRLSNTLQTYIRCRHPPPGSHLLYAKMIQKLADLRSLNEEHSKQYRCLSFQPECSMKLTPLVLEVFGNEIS

Each compound was assayed against Vitamin D3 receptor (Homo sapiens) (UniProt P11473) (assay: Inhibitors of the vitamin D receptor (VDR): qHTS). Conditions: VDR-SRC2-3 peptide fluorescence polarization, 2 h; max response, negative = inhibition: stronger effect = lower value.
Outline: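 Inhibition of the VDR/SRC2-3 peptide interaction is quantified by fluorescence polarization. Compounds (23 nl, pintool) incubate with the reagents for 2 hours at ambient room temperature.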
% is set by controls: 0 for no effect and ±100 for the full control effect; potency is the fitted concentration of half-maximal effect.

How did the Potency turn out when `O=C(Nc1ncccn1)c1cc(-c2cccc(Br)c2)nc2ccccc12` was run?
The Potency was inconclusive: 0.631 µM [inhibitor, full curve, poor fit].

For `CC1CCCN(C(=O)c2ccncc2)C1` (centres undefined), which max response, negative = inhibition is on record?
Its max response, negative = inhibition is inactive: 2.95%.

Which max response, negative = inhibition does the source give for `Cn1ccc2ccc(C3=CC(=O)C[C@H](c4ccc(F)cc4)C3)cc21` here?
Its max response, negative = inhibition is inactive: -22.4%.

How did the max response, negative = inhibition turn out when `CC(=O)CSc1ncnc2sc3c(c12)CCC(C)C3` (centres undefined) was run?
Its max response, negative = inhibition is inactive: -2.42%.

How did the Potency turn out when `c1ccc(-n2nnnc2Sc2ncnc3sc4c(c23)CCCC4)cc1` was run?
The Potency was inconclusive: 100 µM [inhibitor, single point].

For `O=C1N/C(=N/Nc2ccccc2)S/C1=C\c1ccccc1`, which Potency is on record?
The Potency was active: 44.7 µM.

With `C=CCC[C@@H](Cc1ccc(F)cc1)C(=O)OC[C@@H](Cc1c[nH]c2ccccc12)NC(=O)[C@H](CC=C)CC(=O)NCCO` as the compound, how does the max response, negative = inhibition read?
The max response, negative = inhibition was inactive: -19.4%.

Which Potency does the source give for `CC(=O)OCC1=C(C(=O)O)N2C(=O)[C@@H](NC(=O)Cc3cccs3)[C@H]2SC1` here?
Its Potency is inconclusive: 63.1 µM [inhibitor, partial curve, poor fit] and inconclusive: 56.2 µM [inhibitor, partial curve, poor fit].

With `COc1ccc(N2CCN(C(=O)NC3CCCCC3)CC2)cc1` as the compound, how does the max response, negative = inhibition read?
The max response, negative = inhibition was inactive: -6.73%.

`COc1ccc(Oc2c(Cl)cnn(-c3ccc(F)cc3)c2=O)cc1` was tested. Which max response, negative = inhibition did it give?
Its max response, negative = inhibition is inactive: -1.69%.

Which Potency does the source give for `COCCn1c(SCC(=O)Nc2sc(C)c(C)c2C#N)nnc1C(C)C` here?
The Potency was inconclusive: 5.62 µM [inhibitor, partial curve, poor fit].

`O=C(O)c1ccc2c(c1)C1C=CCC1C(c1cc3c(cc1Br)OCO3)N2` (centres undefined) was tested. Which Potency did it give?
The Potency was inconclusive: 79.4 µM [inhibitor, single point].

`COc1ccccc1-n1c(=S)[nH]c2c(sc(=S)n2-c2ccc(C)cc2C)c1=O` was tested. Which Potency did it give?
Its Potency is inconclusive: 56.2 µM [inhibitor, partial curve, poor fit].

Which Potency does the source give for `CN1CCN(S(=O)(=O)c2cccc(C(=O)Nc3cc(Cl)ccc3N3CCOCC3)c2)CC1` here?
Its Potency is inconclusive: 89.1 µM [inhibitor, partial curve, poor fit].

For `Cc1cccc(C2Nc3ccccc3C(=O)N2CCc2ccccc2)n1` (centres undefined), which max response, negative = inhibition is on record?
The max response, negative = inhibition was inactive: -0.288%.

How did the Potency turn out when `COc1ccc(NS(=O)(=O)c2ccc(N3CCCC3)c(NC(=S)Nc3cccc(C)c3C)c2)cc1` was run?
Its Potency is inconclusive: 50.1 µM [inhibitor, partial curve, poor fit].

How did the Potency turn out when `CCc1ccc2c(c1)/C(=C/C(=O)c1cccs1)C(=O)N2` was run?
Its Potency is active: 25.1 µM.

Which max response, negative = inhibition does the source give for `CS(=O)(=O)c1ccc(Cl)c(NC(=O)CSc2nc3ccccc3c(=O)n2Cc2ccco2)c1` here?
Its max response, negative = inhibition is inactive: -0.779%.

`C=CCOC(=O)C(C#N)c1nc2ccccc2nc1N1CCN(Cc2ccc3c(c2)OCO3)CC1` (centres undefined) was tested. Which max response, negative = inhibition did it give?
Its max response, negative = inhibition is inactive: 20.8%.

`CCC(=O)N1N=C(c2ccccc2)CC1c1ccc([N+](=O)[O-])cc1` (centres undefined) was tested. Which Potency did it give?
The Potency was inconclusive: 70.8 µM [inhibitor, partial curve].

For `COc1ccccc1CCn1c(N)c(C#N)c2nc3ccccc3nc21`, which Potency is on record?
The Potency was inconclusive: 89.1 µM [inhibitor, single point].

`N#CC1=C2SCN(C3CCCCC3)CN2C(=O)CC1c1c(F)cccc1Cl` (centres undefined) was tested. Which Potency did it give?
Its Potency is active: 20 µM.

How did the Potency turn out when `COc1cccc(OC(=O)CSc2nnc(-c3ccccc3Br)o2)c1` was run?
Its Potency is inconclusive: 89.1 µM [inhibitor, single point].

Which max response, negative = inhibition does the source give for `CN(CCC#N)C(=O)COC(=O)c1ccccc1C(=O)c1ccc(Cl)c([N+](=O)[O-])c1` here?
The max response, negative = inhibition was inactive: 3.16%.

`CCn1c(=O)c([N+](=O)[O-])c(N2CCSCC2)c2ccccc21` was tested. Which max response, negative = inhibition did it give?
The max response, negative = inhibition was inactive: -14.4%.

With `COc1ccc(NC(=O)CN(Cc2ccco2)Cc2ccco2)cc1S(=O)(=O)N1CCCCC1` as the compound, how does the Potency read?
Its Potency is inconclusive: 3.98 µM [inhibitor, full curve, poor fit].

Which max response, negative = inhibition does the source give for `NC(=O)N/N=C/c1ccc(-c2cccc(C(F)(F)F)c2)o1` here?
Its max response, negative = inhibition is inactive: -10%.

With `Cc1c(CCC(=O)O)c(=O)oc2cc(OCc3ccccc3F)ccc12` as the compound, how does the Potency read?
The Potency was inconclusive: 100 µM [inhibitor, single point].

`Cc1ccc(Oc2ccc(S(=O)(=O)N3CCOCC3)cc2C(N)=O)cc1C` was tested. Which Potency did it give?
Its Potency is inconclusive: 89.1 µM [inhibitor, partial curve, poor fit].

For `COc1ccc(C(=O)NCCS(=O)(=O)N(C)Cc2ccccc2)cc1`, which Potency is on record?
Its Potency is inconclusive: 89.1 µM [inhibitor, single point].

For `Cc1cc(NC(=S)Nc2ccc(C)c(Cl)c2)n[nH]1`, which Potency is on record?
Its Potency is inconclusive: 50.1 µM [inhibitor, single point].

`COc1ccc(NC(=O)CCc2ccccc2)cc1S(=O)(=O)N1CCCCC1` was tested. Which Potency did it give?
The Potency was inconclusive: 50.1 µM [inhibitor, partial curve, poor fit].

`O=C(CSc1c2c(nc3cc(Cl)ccc13)CCCC2)NCCN1CCOCC1` was tested. Which Potency did it give?
The Potency was inconclusive: 39.8 µM [inhibitor, partial curve, poor fit].

With `Cc1ccccc1NC(=O)Cc1nnc(SCC(=O)NC2CCCC2)n1C` as the compound, how does the max response, negative = inhibition read?
The max response, negative = inhibition was inactive: 45.4%.

For `CN(C(=O)c1ccco1)c1nc(-c2ccc(Cl)cc2)cs1`, which Potency is on record?
Its Potency is inconclusive: 56.2 µM [inhibitor, partial curve, poor fit].

Which Potency does the source give for `CCN(CC)c1ccc2c(c1)oc(=O)c1c(Cl)cc(=O)oc12` here?
Its Potency is inconclusive: 39.8 µM [inhibitor, partial curve, poor fit].

Which Potency does the source give for `Cc1ccc(C2(c3ccccc3)NC(=O)N(CC(=O)NC3CCS(=O)(=O)C3)C2=O)cc1C` (centres undefined) here?
The Potency was inconclusive: 70.8 µM [inhibitor, partial curve].

Which Potency does the source give for `COc1cccc(CN2CCNC(=O)C2CC(=O)NCCc2nc(C)c(C)s2)c1OC` (centres undefined) here?
The Potency was inconclusive: 11.2 µM [inhibitor, partial curve, poor fit].

`CN(C)c1ccc(C=NNc2ccccn2)c(Cl)c1` was tested. Which max response, negative = inhibition did it give?
The max response, negative = inhibition was inactive: 1.87%.

`CC(C)C[C@@H](CN(C)N=O)N(C[C@H](Cc1ccccc1)N(CCc1ccccc1)N=O)N=O` was tested. Which Potency did it give?
The Potency was inconclusive: 89.1 µM [inhibitor, single point].

With `Cc1nc(NC(=O)/C=C/c2ccc(Cl)cc2Cl)sc1C(=O)N(C)C` as the compound, how does the Potency read?
Its Potency is inconclusive: 35.5 µM [inhibitor, partial curve, poor fit].

`O=C1[C@H]2[C@@H](c3ccc(F)cc3)N3C(=O)N(c4ccc(Br)cc4)C(=O)[C@@]3(Cc3ccc(Cl)cc3)[C@H]2C(=O)N1C1CCCCC1` was tested. Which Potency did it give?
Its Potency is inconclusive: 89.1 µM [inhibitor, partial curve, poor fit].

How did the max response, negative = inhibition turn out when `Cc1cccnc1NC(=O)NC(=O)c1ccc(C(C)(C)C)s1` was run?
Its max response, negative = inhibition is inactive: -9.62%.

`Cn1cccc1Cc1nnc(SCC(=O)Nc2cccc(F)c2)n1-c1ccc(F)cc1` was tested. Which Potency did it give?
Its Potency is inconclusive: 0.708 µM [inhibitor, full curve, poor fit].

`CCCCc1ccc(S(=O)(=O)N/N=C(/C)c2ccncc2)cc1` was tested. Which Potency did it give?
The Potency was inconclusive: 100 µM [inhibitor, single point].

`O=C(OCc1ccccc1)c1cccc(-c2nnn(Cc3ccccc3)n2)c1` was tested. Which max response, negative = inhibition did it give?
Its max response, negative = inhibition is inactive: 4.72%.

With `COc1ccc2[nH]c3c(c2c1)CCN1C(=O)C(CC(=O)NCCN2CCOCC2)C[C@H](C(=O)N2CCCCC2)[C@@]31CCc1ccccc1` (some centres undefined) as the compound, how does the Potency read?
The Potency was inconclusive: 89.1 µM [inhibitor, partial curve, poor fit].

`O=C(c1ccccc1F)N1CCN(c2ccc([N+](=O)[O-])c3ncccc23)CC1` was tested. Which Potency did it give?
Its Potency is inconclusive: 89.1 µM [inhibitor, single point].

`CCOC(=O)CSc1nc(N)nc(C)c1Cl` was tested. Which Potency did it give?
The Potency was inconclusive: 89.1 µM [inhibitor, single point].

For `CCOC(=O)c1ccc(-n2c(-c3ccc(C)cc3)c(C)n3c4c(=O)n(C)c(=O)n(C)c4nc23)cc1`, which max response, negative = inhibition is on record?
The max response, negative = inhibition was inactive: -14.6%.

Which max response, negative = inhibition does the source give for `OCC(CBr)(CBr)CBr` here?
Its max response, negative = inhibition is inactive: 7.83%.

`CCCCNC(=O)C1(NC(=O)Nc2ccc(C)cc2)CCCCC1` was tested. Which Potency did it give?
Its Potency is inconclusive: 39.8 µM [inhibitor, single point].

With `CCOc1ccc2nc(NC(=S)NCc3ccccc3)sc2c1` as the compound, how does the Potency read?
Its Potency is inconclusive: 56.2 µM [inhibitor, partial curve, poor fit].

`COc1ccccc1N1CCN(S(=O)(=O)c2c(C(=O)N3CCOCC3)c(C)n(C)c2C)CC1` was tested. Which Potency did it give?
Its Potency is inconclusive: 39.8 µM [inhibitor, single point].

`CCOc1ccc(N2C(=O)/C(=C/c3cccs3)N(CC(=O)OC)C2=S)cc1` was tested. Which max response, negative = inhibition did it give?
Its max response, negative = inhibition is inactive: 4.94%.

`CCNc1ncc2nc(-c3cc(F)cc(F)c3)c(=O)n(-c3ccc(OC)cc3)c2n1` was tested. Which Potency did it give?
The Potency was inconclusive: 89.1 µM [inhibitor, partial curve, poor fit].

Which Potency does the source give for `CCCc1nnc(SCc2ccc(OC)cc2)n1N` here?
Its Potency is active: 25.1 µM.

Which Potency does the source give for `O=C1C(Cl)=C(Nc2ccc3cn[nH]c3c2)C(=O)c2ccccc21` here?
Its Potency is inconclusive: 17.8 µM [inhibitor, full curve, poor fit].

With `COC(=O)[C@H](CCSC)NC(=O)c1ccc(NC[C@@H](N)CS)cc1-c1ccccc1` as the compound, how does the Potency read?
The Potency was active: 10 µM.

For `CC(C)C(NC(=O)c1ccccc1F)C(=O)NCc1ccccc1` (centres undefined), which Potency is on record?
Its Potency is inconclusive: 50.1 µM [inhibitor, partial curve, poor fit].

For `C=C1C(=O)O[C@@H]2[C@H]3O[C@]3(C)CCC=C(C)CC[C@@H]12`, which Potency is on record?
The Potency was active: 35.5 µM.

Which Potency does the source give for `CCNC(=O)COc1ccc(CC)cc1` here?
Its Potency is inconclusive: 0.631 µM [inhibitor, full curve, poor fit].

`CCC(C)NC(=O)CS(=O)Cc1nc(-c2cccc(OC)c2)oc1C` (centres undefined) was tested. Which Potency did it give?
The Potency was inconclusive: 50.1 µM [inhibitor, partial curve, poor fit].
